# Assay results taken from patent US20260265538A1, “Aqueous Industrial Product Stabilized Against Microbial Contamination” (Thor GmbH, priority 2023, published 2026).
# Where a name gives a salt, the structure may show the parent alone. The source gives many values for each of these; only a part stands here.
# System: Bacteria mixture 1 (Pseudomonas genus)
# Assay: Repetitive stress test of paints with bacteria mixture 1, semiquantitative evaluation (examples 2 and 3)
# Format: cell-based
# Set-up: key: 0: No growth; Minimal growth, 1 to 10 colonies visible over the entire streak; 2: Light growth, maximum 100 colonies; Moderate growth, maximum 300 to 400 colonies; Uniform growth, >400 colonies, single colonies still clearly recognizable; 5: Heavy growth, too many colonies to count, but no growth over the entire streak; 6: Full growth, barely any single colonies still apparent, growth over the entire streak
# Details: 6 d
# Description: Paints 1 to 3 were mixed and homogenized with various concentrations of the guanidinium salts to be tested.
# The batches obtained of the paint thus prepared were inoculated repeatedly with a mixture of different wild-type bacterial strains that are of practical relevance with regard to contamination. These bacteria had previously been isolated from commercial emulsion paints containing conventional preservatives (bacteria mixture 1, Pseudomonas genus), which are microbially contaminated in practice, and commercial so-called preservative-free alkaline emulsion paints (bacteria mixture 2, alkaliphilic bacteria of the Nesterenkonia & Alkalibacterium genus), which are microbially contaminated in practice.
# • Pseudomonas spp. (Pseudomonas oleovorans group) DSM 33933 • Pseudomonas aeruginosa DSM 33935 • Pseudomonas oleovorans DSM 33936 • Pseudomonas putida DSM 33937 • Pseudomonas aeruginosa DSM 33938
# The inoculum was added to the respective sample in each inoculation at 2% (v/w) as a fresh cell suspension in a physiological saline solution (0.9% NaCl). The cell count of the added inoculum in example 1 was 10^5/ml, in examples 2 to 5 10^9/ml, and in example 6 10^6/ml, each in equal portions consisting of the individual bacterial strains. The cell suspension was produced by growing the individual bacteria at 30° C. for 24 h in liquid culture on a shaker. The medium used to grow the bacteria from bacteria mixture 1 was Müller-Hinton liquid medium. Bacteria from bacteria mixture 2 were grown in Müller-Hinton liquid medium that had been adjusted to pH 9.5-9.7 with an alkaline buffer solution beforehand. After growing, the individual liquid cultures were centrifuged, and the cells were resuspended in physiological saline solution. In order to adjust the mixture to the desired cell count, the individual bacteria suspensions, if necessary, were diluted accordingly before being combined with saline solution. The cell count of the inoculum was determined in each case by chamber counting.
# In examples 2 to 6, what is called a repetitive stress test with bacteria was conducted by inoculating the samples at particular time intervals repeatedly with a bacteria suspension having a cell count of 10^9/ml (2% v/w) and monitoring the evolution of the bacteria by a semiquantitative evaluation method. After each inoculation, the samples were incubated at 30° C. for 6 days (bacteria mixture 1 and 3) or 7 and 14 days (bacteria mixture 2), and after these periods bacterial infestation was evaluated semiquantitatively in each case. For this purpose, an aliquot was taken from each sample after homogenization using a sterile plastic inoculation loop (10 μl) and streaked evenly on agar plates (bacteria mixture 1 and 3 on tryptic soy agar, bacteria mixture 2 on DSMZ 31 alkaline nutrient agar). The streaked agar plates were then incubated at 30° C. for 48 h (bacteria mixture 1 and 3) or 5 to 7 days (bacteria mixture 2). After incubation, the bacterial colonies grown on the agar plates were visually evaluated and quantified according to the following scheme:
# A total of 3 inoculation cycles was performed in each repetitive stress test.
# Inoculation 2% (w/v) with Bacteria Mixture 1, 10^9 CFU/ml
# 2% (w/v) Inoculation with Bacteria Mixture 1, […]
smiles,measurement,setting,value
N=C(N)N [guanidine hydrochloride],Bacterial growth after inoculation,"Table 2, Paint 1, +0.25% guanidine hydrochloride (1545 ppm guanidine), pH 7.7, 1. inoculation",6
same,Bacterial growth after inoculation,"Table 2, Paint 1, +0.25% guanidine hydrochloride (1545 ppm guanidine), pH 7.7, 2. inoculation",6
same,Bacterial growth after inoculation,"Table 2, Paint 1, +0.25% guanidine hydrochloride (1545 ppm guanidine), pH 7.7, 3. inoculation",6
same,Bacterial growth after inoculation,"Table 2, Paint 1, +0.25% guanidine hydrochloride (1545 ppm guanidine), pH 8.5 adjusted with NaOH, 1. inoculation","3 (Moderate growth, maximum 300 to 400 colonies)"
same,Bacterial growth after inoculation,"Table 2, Paint 1, +0.25% guanidine hydrochloride (1545 ppm guanidine), pH 8.5 adjusted with NaOH, 2. inoculation",6
same,Bacterial growth after inoculation,"Table 2, Paint 1, +0.25% guanidine hydrochloride (1545 ppm guanidine), pH 8.5 adjusted with NaOH, 3. inoculation",6
same,Bacterial growth after inoculation,"Table 2, Paint 1, +0.25% guanidine hydrochloride (1545 ppm guanidine), pH 9.0 adjusted with NaOH, 1. inoculation",0
same,Bacterial growth after inoculation,"Table 2, Paint 1, +0.25% guanidine hydrochloride (1545 ppm guanidine), pH 9.0 adjusted with NaOH, 2. inoculation","4 (Uniform growth, >400 colonies, single colonies still clearly recognizable)"
same,Bacterial growth after inoculation,"Table 2, Paint 1, +0.25% guanidine hydrochloride (1545 ppm guanidine), pH 9.0 adjusted with NaOH, 3. inoculation",6
same,Bacterial growth after inoculation,"Table 2, Paint 1, +0.5% guanidine hydrochloride (3090 ppm guanidine), pH 7.6, 1. inoculation",6
same,Bacterial growth after inoculation,"Table 2, Paint 1, +0.5% guanidine hydrochloride (3090 ppm guanidine), pH 7.6, 2. inoculation",6
same,Bacterial growth after inoculation,"Table 2, Paint 1, +0.5% guanidine hydrochloride (3090 ppm guanidine), pH 7.6, 3. inoculation",6
same,Bacterial growth after inoculation,"Table 2, Paint 1, +0.5% guanidine hydrochloride (3090 ppm guanidine), pH 8.5 adjusted with NaOH, 1. inoculation",0
same,Bacterial growth after inoculation,"Table 2, Paint 1, +0.5% guanidine hydrochloride (3090 ppm guanidine), pH 8.5 adjusted with NaOH, 2. inoculation",0
same,Bacterial growth after inoculation,"Table 2, Paint 1, +0.5% guanidine hydrochloride (3090 ppm guanidine), pH 8.5 adjusted with NaOH, 3. inoculation",6
same,Bacterial growth after inoculation,"Table 2, Paint 1, +0.5% guanidine hydrochloride (3090 ppm guanidine), pH 9.0 adjusted with NaOH, 1. inoculation",0
same,Bacterial growth after inoculation,"Table 2, Paint 1, +0.5% guanidine hydrochloride (3090 ppm guanidine), pH 9.0 adjusted with NaOH, 2. inoculation",0
same,Bacterial growth after inoculation,"Table 2, Paint 1, +0.5% guanidine hydrochloride (3090 ppm guanidine), pH 9.0 adjusted with NaOH, 3. inoculation",0
same,Bacterial growth after inoculation,"Table 2, Paint 2, +0.25% guanidine hydrochloride (1545 ppm guanidine), pH 7.8, 1. inoculation",6
same,Bacterial growth after inoculation,"Table 2, Paint 2, +0.25% guanidine hydrochloride (1545 ppm guanidine), pH 7.8, 2. inoculation",6
same,Bacterial growth after inoculation,"Table 2, Paint 2, +0.25% guanidine hydrochloride (1545 ppm guanidine), pH 7.8, 3. inoculation",6
same,Bacterial growth after inoculation,"Table 2, Paint 2, +0.25% guanidine hydrochloride (1545 ppm guanidine), pH 8.4 adjusted with NaOH, 1. inoculation",6
same,Bacterial growth after inoculation,"Table 2, Paint 2, +0.25% guanidine hydrochloride (1545 ppm guanidine), pH 8.4 adjusted with NaOH, 2. inoculation",6
same,Bacterial growth after inoculation,"Table 2, Paint 2, +0.25% guanidine hydrochloride (1545 ppm guanidine), pH 8.4 adjusted with NaOH, 3. inoculation",6
same,Bacterial growth after inoculation,"Table 2, Paint 2, +0.25% guanidine hydrochloride (1545 ppm guanidine), pH 9.0 adjusted with NaOH, 1. inoculation",0
same,Bacterial growth after inoculation,"Table 2, Paint 2, +0.25% guanidine hydrochloride (1545 ppm guanidine), pH 9.0 adjusted with NaOH, 2. inoculation",0
same,Bacterial growth after inoculation,"Table 2, Paint 2, +0.25% guanidine hydrochloride (1545 ppm guanidine), pH 9.0 adjusted with NaOH, 3. inoculation",6
same,Bacterial growth after inoculation,"Table 2, Paint 2, +0.5% guanidine hydrochloride (3090 ppm guanidine), pH 7.7, 1. inoculation",6
same,Bacterial growth after inoculation,"Table 2, Paint 2, +0.5% guanidine hydrochloride (3090 ppm guanidine), pH 7.7, 2. inoculation",6
same,Bacterial growth after inoculation,"Table 2, Paint 2, +0.5% guanidine hydrochloride (3090 ppm guanidine), pH 7.7, 3. inoculation",6
same,Bacterial growth after inoculation,"Table 2, Paint 2, +0.5% guanidine hydrochloride (3090 ppm guanidine), pH 8.4 adjusted with NaOH, 1. inoculation",0
same,Bacterial growth after inoculation,"Table 2, Paint 2, +0.5% guanidine hydrochloride (3090 ppm guanidine), pH 8.4 adjusted with NaOH, 2. inoculation",0
same,Bacterial growth after inoculation,"Table 2, Paint 2, +0.5% guanidine hydrochloride (3090 ppm guanidine), pH 8.4 adjusted with NaOH, 3. inoculation",6
same,Bacterial growth after inoculation,"Table 2, Paint 2, +0.5% guanidine hydrochloride (3090 ppm guanidine), pH 9.0 adjusted with NaOH, 1. inoculation",0
same,Bacterial growth after inoculation,"Table 2, Paint 2, +0.5% guanidine hydrochloride (3090 ppm guanidine), pH 9.0 adjusted with NaOH, 2. inoculation",0
same,Bacterial growth after inoculation,"Table 2, Paint 2, +0.5% guanidine hydrochloride (3090 ppm guanidine), pH 9.0 adjusted with NaOH, 3. inoculation","3 (Moderate growth, maximum 300 to 400 colonies)"
same,Bacterial growth after inoculation,"Table 3, Paint 1, +0.5% guanidine hydrochloride (3090 ppm guanidine), pH 7.6, 1. inoculation",6
same,Bacterial growth after inoculation,"Table 3, Paint 1, +0.5% guanidine hydrochloride (3090 ppm guanidine), pH 7.6, 2. inoculation",6
same,Bacterial growth after inoculation,"Table 3, Paint 1, +0.5% guanidine hydrochloride (3090 ppm guanidine), pH 7.6, 3. inoculation",6
same,Bacterial growth after inoculation,"Table 3, Paint 1, +0.6% guanidine hydrochloride (3708 ppm guanidine), pH 7.6, 1. inoculation",6
same,Bacterial growth after inoculation,"Table 3, Paint 1, +0.6% guanidine hydrochloride (3708 ppm guanidine), pH 7.6, 2. inoculation",6
same,Bacterial growth after inoculation,"Table 3, Paint 1, +0.6% guanidine hydrochloride (3708 ppm guanidine), pH 7.6, 3. inoculation",6
same,Bacterial growth after inoculation,"Table 3, Paint 1, +0.7% guanidine hydrochloride (4326 ppm guanidine), pH 7.5, 1. inoculation",5
same,Bacterial growth after inoculation,"Table 3, Paint 1, +0.7% guanidine hydrochloride (4326 ppm guanidine), pH 7.5, 2. inoculation",6
same,Bacterial growth after inoculation,"Table 3, Paint 1, +0.7% guanidine hydrochloride (4326 ppm guanidine), pH 7.5, 3. inoculation",6
same,Bacterial growth after inoculation,"Table 3, Paint 1, +0.8% guanidine hydrochloride (4944 ppm guanidine), pH 7.5, 1. inoculation","1 (Minimal growth, 1 to 10 colonies visible over the entire streak)"
same,Bacterial growth after inoculation,"Table 3, Paint 1, +0.8% guanidine hydrochloride (4944 ppm guanidine), pH 7.5, 2. inoculation","1 (Minimal growth, 1 to 10 colonies visible over the entire streak)"
same,Bacterial growth after inoculation,"Table 3, Paint 1, +0.8% guanidine hydrochloride (4944 ppm guanidine), pH 7.5, 3. inoculation","3 (Moderate growth, maximum 300 to 400 colonies)"
same,Bacterial growth after inoculation,"Table 3, Paint 1, +0.9% guanidine hydrochloride (5562 ppm guanidine), pH 7.5, 1. inoculation",0
same,Bacterial growth after inoculation,"Table 3, Paint 1, +0.9% guanidine hydrochloride (5562 ppm guanidine), pH 7.5, 2. inoculation",0
same,Bacterial growth after inoculation,"Table 3, Paint 1, +0.9% guanidine hydrochloride (5562 ppm guanidine), pH 7.5, 3. inoculation",0
same,Bacterial growth after inoculation,"Table 3, Paint 2, +0.5% guanidine hydrochloride (3090 ppm guanidine), pH 7.7, 1. inoculation",6
same,Bacterial growth after inoculation,"Table 3, Paint 2, +0.5% guanidine hydrochloride (3090 ppm guanidine), pH 7.7, 2. inoculation",6
same,Bacterial growth after inoculation,"Table 3, Paint 2, +0.5% guanidine hydrochloride (3090 ppm guanidine), pH 7.7, 3. inoculation",6
same,Bacterial growth after inoculation,"Table 3, Paint 2, +0.6% guanidine hydrochloride (3708 ppm guanidine), pH 7.7, 1. inoculation","4 (Uniform growth, >400 colonies, single colonies still clearly recognizable)"
same,Bacterial growth after inoculation,"Table 3, Paint 2, +0.6% guanidine hydrochloride (3708 ppm guanidine), pH 7.7, 2. inoculation",6
same,Bacterial growth after inoculation,"Table 3, Paint 2, +0.6% guanidine hydrochloride (3708 ppm guanidine), pH 7.7, 3. inoculation",6
same,Bacterial growth after inoculation,"Table 3, Paint 2, +0.7% guanidine hydrochloride (4326 ppm guanidine), pH 7.7, 1. inoculation","3 (Moderate growth, maximum 300 to 400 colonies)"
same,Bacterial growth after inoculation,"Table 3, Paint 2, +0.7% guanidine hydrochloride (4326 ppm guanidine), pH 7.7, 2. inoculation",6
same,Bacterial growth after inoculation,"Table 3, Paint 2, +0.7% guanidine hydrochloride (4326 ppm guanidine), pH 7.7, 3. inoculation",6
same,Bacterial growth after inoculation,"Table 3, Paint 2, +0.8% guanidine hydrochloride (4944 ppm guanidine), pH 7.6, 1. inoculation",0
same,Bacterial growth after inoculation,"Table 3, Paint 2, +0.8% guanidine hydrochloride (4944 ppm guanidine), pH 7.6, 2. inoculation",0
same,Bacterial growth after inoculation,"Table 3, Paint 2, +0.8% guanidine hydrochloride (4944 ppm guanidine), pH 7.6, 3. inoculation",0
same,Bacterial growth after inoculation,"Table 3, Paint 2, +0.9% guanidine hydrochloride (5562 ppm guanidine), pH 7.6, 1. inoculation",0
same,Bacterial growth after inoculation,"Table 3, Paint 2, +0.9% guanidine hydrochloride (5562 ppm guanidine), pH 7.6, 2. inoculation",0
same,Bacterial growth after inoculation,"Table 3, Paint 2, +0.9% guanidine hydrochloride (5562 ppm guanidine), pH 7.6, 3. inoculation",0
